Results are given in words; binding and its absence hold for the method and conditions named. In cells and extracts the contact can be indirect. These calls come from enrichment with a bait or labelling near it, and not all partners need be listed.
Biological target: Pre-mRNA processing factor 19 (PRP19), endogenous in HCC cells (not stated (endogenous in HCC cells; human Huh7, PLC/PRF/5 or mouse Hepa1-6)) (UniProt Q9UMS4)
Test: affinity purification with mass spectrometry; HCC cell lysates immunoprecipitated with anti-PRP19 (Santa Cruz, 1:100) or control IgG overnight at 4 °C, Protein A magnetic beads 2 h at room temperature; silver-stained gel bands analysed by LC-MS/MS

Protein sequences, listed by entry. Tags and fused reporters are not part of them.
UniProt Q9UMS4: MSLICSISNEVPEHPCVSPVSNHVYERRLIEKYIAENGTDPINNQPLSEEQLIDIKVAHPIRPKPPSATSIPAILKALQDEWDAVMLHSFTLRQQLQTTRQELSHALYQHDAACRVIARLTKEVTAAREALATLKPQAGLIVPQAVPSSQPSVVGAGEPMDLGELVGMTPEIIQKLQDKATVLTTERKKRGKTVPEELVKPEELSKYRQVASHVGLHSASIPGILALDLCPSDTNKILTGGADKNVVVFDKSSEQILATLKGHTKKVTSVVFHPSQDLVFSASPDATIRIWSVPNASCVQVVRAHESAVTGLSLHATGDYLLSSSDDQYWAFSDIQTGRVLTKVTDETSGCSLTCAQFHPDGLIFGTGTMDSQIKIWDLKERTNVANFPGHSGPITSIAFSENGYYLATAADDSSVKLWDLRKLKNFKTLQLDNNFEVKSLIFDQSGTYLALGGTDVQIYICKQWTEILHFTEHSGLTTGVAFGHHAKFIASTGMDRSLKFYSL
UniProt P17844: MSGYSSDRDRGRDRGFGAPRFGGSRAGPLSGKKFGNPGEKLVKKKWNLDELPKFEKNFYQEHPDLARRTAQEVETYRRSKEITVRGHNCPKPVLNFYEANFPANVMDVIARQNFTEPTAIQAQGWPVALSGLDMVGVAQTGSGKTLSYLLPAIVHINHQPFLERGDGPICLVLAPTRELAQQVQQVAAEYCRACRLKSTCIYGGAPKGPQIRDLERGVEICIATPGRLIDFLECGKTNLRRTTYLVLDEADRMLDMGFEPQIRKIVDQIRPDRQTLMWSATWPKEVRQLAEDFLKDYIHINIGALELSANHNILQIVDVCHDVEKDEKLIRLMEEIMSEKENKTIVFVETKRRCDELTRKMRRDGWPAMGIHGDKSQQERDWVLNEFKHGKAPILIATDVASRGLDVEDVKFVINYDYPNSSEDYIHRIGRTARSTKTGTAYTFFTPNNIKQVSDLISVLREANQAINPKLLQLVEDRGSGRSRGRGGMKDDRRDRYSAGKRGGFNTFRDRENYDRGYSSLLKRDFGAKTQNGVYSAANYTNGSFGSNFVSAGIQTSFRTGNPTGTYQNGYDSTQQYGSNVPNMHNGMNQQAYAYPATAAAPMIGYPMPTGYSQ

DEAD-box helicase 5 (DDX5), endogenous in HCC cells (from UniProt P17844 1-614)
binding: binds
